This passage reports binding results from publication PMC2695267.

In the test the target is T1, Integrin-alpha1 (mouse (endogenous in NIH3T3)) (UniProt Q3V3R4).
T1 sequence: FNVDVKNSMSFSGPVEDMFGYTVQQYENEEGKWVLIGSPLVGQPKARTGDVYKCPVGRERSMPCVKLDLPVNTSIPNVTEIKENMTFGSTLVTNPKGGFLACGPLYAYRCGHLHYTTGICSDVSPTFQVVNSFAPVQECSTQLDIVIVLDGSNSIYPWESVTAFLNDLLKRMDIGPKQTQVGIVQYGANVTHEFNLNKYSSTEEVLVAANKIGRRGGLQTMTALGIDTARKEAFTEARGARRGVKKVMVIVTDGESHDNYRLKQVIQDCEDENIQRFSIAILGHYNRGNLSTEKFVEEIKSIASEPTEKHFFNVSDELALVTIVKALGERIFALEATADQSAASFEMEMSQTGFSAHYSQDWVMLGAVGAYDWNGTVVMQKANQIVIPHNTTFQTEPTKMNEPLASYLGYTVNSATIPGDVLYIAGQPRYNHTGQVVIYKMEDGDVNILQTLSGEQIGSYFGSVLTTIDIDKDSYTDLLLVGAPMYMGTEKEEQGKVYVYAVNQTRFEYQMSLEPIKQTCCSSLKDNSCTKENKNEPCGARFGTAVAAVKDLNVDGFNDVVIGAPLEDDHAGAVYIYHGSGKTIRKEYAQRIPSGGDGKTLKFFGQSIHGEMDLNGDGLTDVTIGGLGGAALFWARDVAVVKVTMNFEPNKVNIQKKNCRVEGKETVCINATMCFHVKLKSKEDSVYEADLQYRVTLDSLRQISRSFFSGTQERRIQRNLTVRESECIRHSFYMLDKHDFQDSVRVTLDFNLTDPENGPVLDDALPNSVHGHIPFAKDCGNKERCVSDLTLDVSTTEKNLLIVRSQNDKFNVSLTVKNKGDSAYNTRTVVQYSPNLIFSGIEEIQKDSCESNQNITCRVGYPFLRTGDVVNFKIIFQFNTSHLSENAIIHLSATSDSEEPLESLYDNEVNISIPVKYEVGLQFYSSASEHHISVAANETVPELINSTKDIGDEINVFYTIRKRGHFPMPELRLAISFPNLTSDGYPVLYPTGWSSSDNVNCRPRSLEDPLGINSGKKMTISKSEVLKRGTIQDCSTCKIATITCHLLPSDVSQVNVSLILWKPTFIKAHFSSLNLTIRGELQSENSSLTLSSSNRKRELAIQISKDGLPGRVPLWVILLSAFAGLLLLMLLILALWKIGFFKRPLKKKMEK
As to the kind of experiment: antibody array; Signal Transduction AntibodyArray (Hypromatrix HM3000, 450 spots of antibodies) challenged with wt-NIH3T3 cell lysate; proteins captured by their antibodies, ROLP held with them detected with digoxigenin-labelled ROLP-specific IgGs.

Results are given in words; binding and its absence hold for the method and conditions named. Binding calls can cover weak binding; strength is not graded here.

On to “Rolly Protein (ROLP) (mouse (endogenous in NIH3T3))”, for which the binding entry is “binds weakly”.
